PubChem BioAssay AID504764 | Drosophila RNAi Screening Center – 2011
In all, the deposit lists about 22,000 reagents; below is an unselected part of those with a known target gene and a result. Of all reagents, 403 (1.9%) were called active. 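Unnormalised raw counts per well; ratio z-scores behind the hit calls and whether each hit raises or lowers signal are not deposited.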 The record does not give: the amount of reagent.

- Screen: 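Knock-downs that raise or lower a Notch target reporter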 (primary screen)
- Cells: Drosophila Kc167 cells
- Reagents: long dsRNA against Drosophila genes
- Duration: about 5 days (4 days dsRNA, then 24 h after transfection)
- Treatment: transfection of constitutively active membrane-tethered Notch lacking the extracellular domain, read 24 h later
- Read-out: 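Light from a Notch-responsive E(spl)m3 luciferase reporter under active Notch, with control-promoter and no-Notch reporter wells to normalise; raw counts from paired wells a and b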
- Direction: induced reporter light, run 1, well a and induced reporter light, run 1, well b: higher = more light from the Notch target reporter with active Notch; control promoter light, run 1, well a and control promoter light, run 1, well b: higher = more light from the viral control promoter (cell number, transfection, viability); uninduced reporter light, run 1, well a: higher = more light from the Notch target reporter without active Notch
- Rule for the call: 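Hit if the duplicate-averaged log2 ratio of induced to control-promoter light gives a plate-wise z beyond ±2, or induced to uninduced beyond ±1.8; weak-control or discordant-duplicate wells dropped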
- Meaning of the calls: active = modifier hit (raised or lowered Notch signal); inactive = not a hit

gene knocked down	amplicon	induced reporter light, run 1, well a	induced reporter light, run 1, well b	control promoter light, run 1, well a	control promoter light, run 1, well b	uninduced reporter light, run 1, well a	Call
Dpp10	DRSC00942	1.55e5	1.19e5	1.90e5	1.74e5	11660	inactive
Dpp10	DRSC02139	2.04e5	1.38e5	2.07e5	2.10e5	8795	inactive
CG13116	DRSC02214	1.67e5	1.78e5	85650	1.12e5	22060	inactive
CG13116	DRSC21945						inactive
sxe2	DRSC15692	2.22e5	2.13e5	2.80e5	3.07e5	20370	inactive
Arl5	DRSC10785	1.12e5	1.07e5	97905	26075	10350	inactive
CG9664	DRSC00725	1.64e5	2.16e5	2.10e5	1.71e5	17760	inactive
tow	DRSC10192	8030	9050	10920	10232	2675	inactive
Trpgamma	DRSC03626	7955	7830	11638	8918	700	inactive
CG16978	DRSC02553	1.33e5	1.56e5	1.42e5	1.55e5	12680	inactive
mi	DRSC04498	1.42e5	1.39e5	96115	87950	9845	inactive
CG6739	DRSC02987	1.84e5	1.41e5	1.76e5	1.61e5	8260	inactive
Mocs1	DRSC11225	1.28e5	1.31e5	2.43e5	1.41e5	6740	inactive
Gr89a	DRSC15023	1.88e5	1.85e5	1.91e5	1.94e5	14765	inactive
dyl	DRSC08466	96035	1.11e5	72765	37910	9955	inactive
dyl	DRSC08467	65200	1.38e5	2.95e5	3.19e5	7405	active
CG15930	DRSC18107	1.73e5	1.73e5	3.11e5	2.64e5	13688	inactive
Myo31DF	DRSC03376	2.28e5	2.71e5	2.64e5	2.70e5	20045	inactive
CG5062	DRSC18385	1.54e5	1.67e5	2.41e5	2.67e5	11305	inactive
msk	DRSC11340	98535	1.16e5	83190	36700	10805	inactive
CG15459	DRSC20530	54970	84160	1.12e5	1.18e5	10920	active
obst-I	DRSC08339	76655	71945	1.21e5	1.75e5	5870	inactive
Lip1	DRSC03364	22432	33415	17435	20220	3485	inactive
CG10311	DRSC14228	1.90e5	1.98e5	1.76e5	1.82e5	15175	inactive
Orai	DRSC05684	1.05e5	1.04e5	1.50e5	1.04e5	7750	inactive
CG30413	DRSC04001	1.50e5	1.57e5	2.54e5	2.53e5	8255	inactive
Mcad	DRSC09871	90440	95230	63385	36120	10355	inactive
Rh2	DRSC16821	2.00e5	1.80e5	2.17e5	2.02e5	11342	inactive
tko	DRSC18844	1.16e5	1.09e5	1.64e5	2.32e5	7430	inactive
CG7675	DRSC16280	2.09e5	2.16e5	2.14e5	2.59e5	17830	inactive
MED19	DRSC10516	35195	40180	17125	18675	5280	inactive
CG9162 (retired record)	DRSC03151	1.78e5	1.81e5	1.88e5	2.01e5	15295	inactive
PICK1	DRSC02936	1.57e5	1.60e5	1.77e5	1.76e5	13328	inactive
p53	DRSC17024	2.03e5	2.00e5	3.28e5	2.71e5	14310	inactive

Look-ups from above:
For “induced reporter light, run 1, well a”, Mcad [DRSC09871] has 90440
Result of CG9162 (retired record) [DRSC03151] under “uninduced reporter light, run 1, well a”: 15295
